PubChem BioAssay AID1224828, NIAID | 2016
The whole screen tested about 17,000 reagents; shown is a part drawn at random. In the full data, 762 (4.5%) are marked active. 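Active calls include both raised and lowered p65 entry, mostly lowered; wells with fewer than 50 cells lack a z-score.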 The raw values are shown without normalisation. A number with no mark means an inactive call.

- Assay: 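Regulators linking TLR4 signalling to p65 nuclear translocation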 (primary screen)
- Cell system: mouse RAW264.7 G9 macrophage reporter cells (GFP-p65, Tnf promoter-mCherry)
- Knock-down reagent: siRNA pool against mouse genes, 100 nM
- Time to read-out: 2 days siRNA transfection, then 40 min LPS before fixation
- Challenge: LPS (Salmonella minnesota R595) at 10 ng/ml
- Measured: 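Imaged p65 nuclear translocation ratio, normalised to the plate median, converted to robust z-scores and averaged across two replicates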
- Direction: p65 translocation robust z-score: higher = more nuclear NF-kappaB p65 after LPS than the plate median; nuclear/cytoplasmic p65 ratio: higher = more nuclear NF-kappaB p65
- Rule for the call: 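Called active when z exceeds 3.3 or falls under -1.56 (median of Tlr4 controls), giving activity score of at least 50; no calls for control wells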
- Calls: active = hit (p65 shift raised or lowered); inactive = no clear change

The first 2 entries, ahead of the listing:
B230220B15Rik (GeneID 102634835): p65 translocation robust z-score = -0.64; nuclear/cytoplasmic p65 ratio, rep 1 = 1.43; nuclear/cytoplasmic p65 ratio, rep 2 = 1.49; low cell count flag = enough cells to score
5930403N24Rik (GeneID 100040846): p65 translocation robust z-score = 0.72; nuclear/cytoplasmic p65 ratio, rep 1 = 1.38; nuclear/cytoplasmic p65 ratio, rep 2 = 1.64; low cell count flag = enough cells to score

Main list, from the start:
B230220B15Rik (GeneID 102634835): p65 translocation robust z-score = -0.64; nuclear/cytoplasmic p65 ratio, rep 1 = 1.43; nuclear/cytoplasmic p65 ratio, rep 2 = 1.49; low cell count flag = enough cells to score
5930403N24Rik (GeneID 100040846): p65 translocation robust z-score = 0.72; nuclear/cytoplasmic p65 ratio, rep 1 = 1.38; nuclear/cytoplasmic p65 ratio, rep 2 = 1.64; low cell count flag = enough cells to score
Ndufa5 (GeneID 68202): p65 translocation robust z-score = -1.57 (active); nuclear/cytoplasmic p65 ratio, rep 1 = 1.47; nuclear/cytoplasmic p65 ratio, rep 2 = 1.4; low cell count flag = enough cells to score
Ints4 (GeneID 101861): nuclear/cytoplasmic p65 ratio, rep 1 = 1.21; nuclear/cytoplasmic p65 ratio, rep 2 = 1.42; low cell count flag = fewer than 50 cells per well; well left out of scoring
Has1 (GeneID 15116): p65 translocation robust z-score = 1.1; nuclear/cytoplasmic p65 ratio, rep 1 = 1.85; nuclear/cytoplasmic p65 ratio, rep 2 = 1.67; low cell count flag = enough cells to score
Clp1 (GeneID 98985): p65 translocation robust z-score = 0.21; nuclear/cytoplasmic p65 ratio, rep 1 = 1.62; nuclear/cytoplasmic p65 ratio, rep 2 = 1.73; low cell count flag = enough cells to score
Decr1 (GeneID 67460): p65 translocation robust z-score = 0.03; nuclear/cytoplasmic p65 ratio, rep 1 = 1.48; nuclear/cytoplasmic p65 ratio, rep 2 = 1.38; low cell count flag = enough cells to score
Adamts1 (GeneID 11504): p65 translocation robust z-score = 0.07; nuclear/cytoplasmic p65 ratio, rep 1 = 1.6; nuclear/cytoplasmic p65 ratio, rep 2 = 1.65; low cell count flag = enough cells to score
Rars2 (GeneID 109093): nuclear/cytoplasmic p65 ratio, rep 1 = 1.27; nuclear/cytoplasmic p65 ratio, rep 2 = 1.21; low cell count flag = fewer than 50 cells per well; well left out of scoring
Pomp (GeneID 66537): nuclear/cytoplasmic p65 ratio, rep 1 = 1.23; nuclear/cytoplasmic p65 ratio, rep 2 = 1.17; low cell count flag = fewer than 50 cells per well; well left out of scoring
Mrgpra2b (GeneID 235712): p65 translocation robust z-score = 2.24; nuclear/cytoplasmic p65 ratio, rep 1 = 2.06; nuclear/cytoplasmic p65 ratio, rep 2 = 2.01; low cell count flag = enough cells to score
Or9k7 (GeneID 258297): nuclear/cytoplasmic p65 ratio, rep 1 = 1.21; nuclear/cytoplasmic p65 ratio, rep 2 = 1.36; low cell count flag = fewer than 50 cells per well; well left out of scoring
